We go through 1 compound from patent US8466195B2, “Methods and compositions for treating complications of diabetes and vascular diseases using flavones” (Salk Institute for Biological Studies, priority 2009, dated 2013).

The test system of this series is C57BL/6 control mice. The experiment in a line: Metabolic parameters of wild type mice. It counts as in vivo. As to conditions: fisetin 0.05% in diet, 24 weeks of age.

On to `O=c1c(O)c(-c2ccc(O)c(O)c2)oc2cc(O)ccc12` [fisetin, 2-(3,4-dihydroxyphenyl)-3,7-dihydroxychromen-4-one], for which the “Blood Glucose” value turned out to be 73.0 ± 29, the HbA1c is recorded as 5.2 ± 0.4 and the Weight was 32.8 ± 3.1. Where the note is “listed as Fisetin”, the “Blood Glucose” value is “no effect”, the HbA1c entry is recorded as “no effect” and the Weight result is “no effect”.
